PubChem BioAssay AID652243, Drosophila RNAi Screening Center, 2013
The screen tested about 24,000 reagents; shown is a random part of those with a known target gene and a result. Of all reagents, 246 (1%) got an active call. 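Plates not normalised; calls are printed but the firefly/Renilla ratio behind them is not deposited; fold cut for lowering reported inconsistently.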 Raw values are not corrected between plates. The numbers tell different reagents against one gene apart. Not given: the amount of reagent.

Assay: 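Fly genes required for human androgen receptor driven transcription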 (primary screen)
Cell system: Drosophila S2R+ cells
Reagents: long dsRNA against Drosophila genes
Time to read-out: 72 h (48 h, then 24 h hormone)
Challenge: synthetic androgen R1881 at 10 nM for 24 h
Read-out: 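Per-well raw luminescence of the androgen-driven firefly reporter and of the Renilla control, two replicates each, without normalisation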
Direction: firefly reporter light: higher = more light from androgen-responsive reporter; Renilla control light: higher = more constitutive control signal (cell number, transfection)
Hit rule: 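Hit when the log firefly-to-Renilla ratio dropped or increased by a fixed fold versus the mean of GFP or LacZ controls across duplicate plates; lowering cut given as 1.5 and as 3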
Meaning of the calls: active = hit: reporter lowered or raised; inactive = no hit

GckIII #1
- firefly reporter light, replicate 1: 1.01e5
- firefly reporter light, replicate 2: 1.03e5
- Renilla control light, replicate 1: 1.47e6
- Renilla control light, replicate 2: 1.69e6
- outcome: inactive

GckIII #2
- outcome: inactive

Cyp6a2 #1
- firefly reporter light, replicate 1: 3.18e5
- firefly reporter light, replicate 2: 2.61e5
- Renilla control light, replicate 1: 3.13e6
- Renilla control light, replicate 2: 2.09e6
- outcome: inactive

Cyp6a2 #2
- firefly reporter light, replicate 1: 4.46e5
- firefly reporter light, replicate 2: 4.87e5
- Renilla control light, replicate 1: 4.83e5
- Renilla control light, replicate 2: 4.83e5
- outcome: inactive

CG6843 #1
- firefly reporter light, replicate 1: 3.19e5
- firefly reporter light, replicate 2: 2.50e5
- Renilla control light, replicate 1: 2.08e6
- Renilla control light, replicate 2: 2.07e6
- outcome: inactive

CG6843 #2
- firefly reporter light, replicate 1: 6.06e5
- firefly reporter light, replicate 2: 4.70e5
- Renilla control light, replicate 1: 1.14e6
- Renilla control light, replicate 2: 8.90e5
- outcome: inactive

Atat
- firefly reporter light, replicate 1: 1.01e6
- firefly reporter light, replicate 2: 3.65e5
- Renilla control light, replicate 1: 1.08e6
- Renilla control light, replicate 2: 6.16e5
- outcome: inactive

Targets above whose target name starts with G or g (2):
GckIII #1
- firefly reporter light, replicate 1: 1.01e5
- firefly reporter light, replicate 2: 1.03e5
- Renilla control light, replicate 1: 1.47e6
- Renilla control light, replicate 2: 1.69e6
- outcome: inactive

GckIII #2
- outcome: inactive

Next reagents:
NaPi-T #1
- firefly reporter light, replicate 1: 1.43e5
- firefly reporter light, replicate 2: 1.24e5
- Renilla control light, replicate 1: 2.46e6
- Renilla control light, replicate 2: 2.46e6
- outcome: inactive

NaPi-T #2
- firefly reporter light, replicate 1: 4.89e5
- firefly reporter light, replicate 2: 3.95e5
- Renilla control light, replicate 1: 4.76e5
- Renilla control light, replicate 2: 4.66e5
- outcome: inactive

dikar #1
- firefly reporter light, replicate 1: 7.42e5
- firefly reporter light, replicate 2: 7.53e5
- Renilla control light, replicate 1: 1.40e6
- Renilla control light, replicate 2: 1.64e6
- outcome: inactive

dikar #2
- firefly reporter light, replicate 1: 5.26e5
- firefly reporter light, replicate 2: 5.34e5
- Renilla control light, replicate 1: 7.13e5
- Renilla control light, replicate 2: 5.87e5
- outcome: inactive

dikar #3
- firefly reporter light, replicate 1: 6.75e5
- firefly reporter light, replicate 2: 4.86e5
- Renilla control light, replicate 1: 6.38e5
- Renilla control light, replicate 2: 6.02e5
- outcome: inactive

NC2alpha #1
- firefly reporter light, replicate 1: 6.81e5
- firefly reporter light, replicate 2: 8.97e5
- Renilla control light, replicate 1: 2.53e6
- Renilla control light, replicate 2: 2.52e6
- outcome: inactive

NC2alpha #2
- firefly reporter light, replicate 1: 5.74e5
- firefly reporter light, replicate 2: 6.90e5
- Renilla control light, replicate 1: 3.97e5
- Renilla control light, replicate 2: 3.85e5
- outcome: inactive
